Counter-ions that a name gives are not always drawn. Single values of this set are uncertain.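 Viability of TSC2-lost, immortalized human renal angiomyolipoma cells bearing an empty vector was measured by luminescent ATP assay, normalized to each plate's vehicle-treated wells, in low-serum medium, where TSC2-rescued cells do not grow.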
Test system: 621-102 (TSC2-deficient)
Assay: relative viability vs DMSO (fraction); higher = less cytotoxic
Details: serum: 0.1% FBS, 72 h

SMILES | relative viability (0.0128 nM) | relative viability (0.064 nM) | relative viability (0.32 nM) | relative viability (1.6 nM) | relative viability (8 nM) | relative viability (40 nM) | relative viability (200 nM) | relative viability (1000 nM) | relative viability (5000 nM)
Cc1cnc(NC(=O)Nc2cc(Br)c(C)cc2OC[C@@H]2CNCCO2)cn1 | 0.99 | 0.926 | 0.96 | 0.813 | 0.58 | 0.622 | 0.277 | 0.0271 | 0.0175
Cc1c(CN2CCN(C(=O)[C@H](C)O)CC2)sc2c(N3CCOCC3)nc(-c3cnc(N)nc3)nc12 [GDC-0980] | 0.833 | 0.86 | 0.88 | 0.933 | 0.912 | 0.882 | 0.814 | 0.655 | 0.42
O=C1c2ccccc2C(=O)c2c1ccc(O)c2O [Alizarin] | 0.764 | 0.641 | 0.548 | 0.553 | 0.599 | 0.59 | 0.664 | 0.646 | 0.135
CC(C)(C)OC(=O)N[C@H]1CCCCC/C=C\[C@@H]2C[C@@]2(C(=O)NS(=O)(=O)C2CC2)NC(=O)[C@@H]2C[C@@H](OC(=O)N3Cc4cccc(F)c4C3)CN2C1=O [Danoprevir(ITMN-191)] | 0.447 | 0.709 | 0.647 | 0.744 | 0.804 | 0.73 | 0.776 | 0.832 | 0.825
CO[C@H]1C[C@@H]2CC[C@@H](C)[C@@](O)(O2)C(=O)C(=O)N2CCCC[C@H]2C(=O)O[C@H]([C@H](C)C[C@@H]2CC[C@@H](OP(C)(C)=O)[C@H](OC)C2)CC(=O)[C@H](C)/C=C(\C)[C@@H](O)[C@@H](OC)C(=O)[C@H](C)C[C@H](C)/C=C/C=C/C=C/1C [Deforolimus(MK-8669)] | 0.841 | 0.904 | 0.813 | 0.626 | 0.537 | 0.435 | 0.242 | 0.178 | 0.168
CN(C)C/C=C/C(=O)Nc1cc2c(Nc3ccc(F)c(Cl)c3)ncnc2cc1O[C@H]1CCOC1 [BIBW2992] | 0.776 | 0.721 | 0.705 | 0.656 | 0.616 | 0.611 | 0.56 | 0.28 | 0.0129
NCCc1ccc(O)c(O)c1 [Dopamine HCl] | 0.772 | 0.708 | 0.687 | 0.758 | 0.787 | 0.774 | 0.748 | 0.831 | 0.67
Nc1nc(Cl)nc2c1ncn2[C@@H]1O[C@H](CO)[C@@H](O)[C@@H]1F [Clofarabine] | 0.786 | 0.797 | 0.782 | 0.404 | 0.795 | 0.458 | 0.0221 | 0.0155 | 0.0138
NC(=O)c1cccc2[nH]c(-c3ccc(C4CCCN4)cc3F)nc12 (centres undefined) | 0.856 | 0.874 | 0.868 | 0.707 | 0.74 | 0.745 | 0.758 | 0.721 | 0.598
CCC[C@H](N[C@@H](C)C(=O)N1[C@H](C(=O)O)C[C@@H]2CCCC[C@@H]21)C(=O)OCC [Perindopril Erbumine] | 0.647 | 0.724 | 0.758 | 0.707 | 0.636 | 0.681 | 0.614 | 0.654 | 0.484
CN(C)CCCN1c2ccccc2CCc2ccc(Cl)cc21 [Clomipramine HCl] | 0.807 | 0.744 | 0.805 | 0.856 | 0.81 | 0.716 | 0.784 | 0.672 | 0.521
OC(CNCC(O)C1CCc2cc(F)ccc2O1)C1CCc2cc(F)ccc2O1 (centres undefined) [Nebivolol] | 0.747 | 0.806 | 0.735 | 0.725 | 0.716 | 0.704 | 0.672 | 0.649 | 0.138
Cc1cc2c(s1)Nc1ccccc1N=C2N1CCN(C)CC1 [Olanzapine] | 1.07 | 0.856 | 0.636 | 0.964 | 0.919 | 0.198 | 0.0464 | 0.0366 | 0.0431
Cc1c(C(=O)Nc2ccc(N3C[C@@H](C)O[C@@H](C)C3)nc2)cccc1-c1ccc(OC(F)(F)F)cc1 [LDE225 (NVP-LDE225,Erismodegib)] | 0.873 | 0.827 | 0.785 | 0.87 | 0.822 | 0.779 | 0.716 | 0.617 | 0.118
COc1ccc(C(CN(C)C)C2(O)CCCCC2)cc1 (centres undefined) [Venlafaxine] | 0.655 | 0.721 | 0.807 | 0.799 | 0.786 | 0.782 | 0.661 | 0.714 | 0.736
CCO[C@@H]1OC(=O)C[C@@H]1NC(=O)[C@@H]1CCCN1C(=O)[C@@H](NC(=O)c1ccc(N)c(Cl)c1)C(C)(C)C [VX-765] | 0.708 | 0.763 | 0.877 | 0.805 | 0.654 | 0.615 | 0.603 | 0.68 | 0.563

SMILES | relative viability (0.0128 nM) | relative viability (0.064 nM) | relative viability (0.32 nM) | relative viability (1.6 nM) | relative viability (8 nM) | relative viability (40 nM) | relative viability (200 nM) | relative viability (1000 nM) | relative viability (5000 nM)
CNCc1ccc(-c2[nH]c3cc(F)cc4c3c2CCNC4=O)cc1 | 0.716 | 0.701 | 0.762 | 0.742 | 0.717 | 0.769 | 0.636 | 0.645 | 0.332
C=CC(=O)Nc1cccc(Sc2nc(Nc3ccc(N4CCN(C)CC4)cc3)ncc2Cl)c1 [WZ8040] | 0.82 | 0.85 | 0.939 | 0.857 | 0.89 | 0.847 | 0.828 | 0.813 | 0.655
C[C@]12CC[C@@H]3c4ccc(O)cc4C[C@@H](CCCCCCCCC[S+]([O-])CCCC(F)(F)C(F)(F)F)[C@H]3[C@@H]1CC[C@@H]2O (some centres undefined) [Fulvestrant] | 1.01 | 0.968 | 0.891 | 0.878 | 0.807 | 0.847 | 0.771 | 0.729 | 0.626
COCCOC(=O)C1=C(C)NC(C)=C(C(=O)OC/C=C/c2ccccc2)C1c1cccc([N+](=O)[O-])c1 (centres undefined) [Cilnidipine] | 0.616 | 0.724 | 0.727 | 0.73 | 0.645 | 0.731 | 0.745 | 0.732 | 0.768
CCOc1nc2cccc(C(=O)OC(C)OC(=O)OC3CCCCC3)c2n1Cc1ccc(-c2ccccc2-c2nn[nH]n2)cc1 (centres undefined) [Candesartan Cilexetil] | 0.799 | 0.943 | 0.16 | 0.174 | 0.115 | 0.144 | 0.154 | 0.117 | 0.0636
C[C@@H](Oc1cc(-n2cnc3ccc(CN4CCN(C)CC4)cc32)sc1C(N)=O)c1ccccc1C(F)(F)F | 0.808 | 0.692 | 0.802 | 0.82 | 0.449 | 0.0133 | 0.0101 | 0.00948 | 0.0171
CCN(CC)Cc1ccc2cc(COC(=O)Nc3ccc(C(=O)NO)cc3)ccc2c1 [ITF2357] | 0.727 | 0.654 | 0.667 | 0.664 | 0.571 | 0.601 | 0.191 | 0.0156 | 0.0314
CCOC(=O)[C@H](CCc1ccccc1)N[C@@H](C)C(=O)N1[C@H](C(=O)O)C[C@@H]2CCC[C@@H]21 [Ramipril] | 0.875 | 0.838 | 0.851 | 0.832 | 0.767 | 0.754 | 0.775 | 0.753 | 0.556
CC(NCCc1ccc(O)cc1)C(O)c1ccc(O)cc1 (centres undefined) [Ritodrine HCl] | 0.857 | 0.364 | 0.834 | 0.885 | 0.836 | 0.739 | 0.759 | 0.724 | 0.706
CC(=O)Nc1nc(C)c(-c2ccc(Cl)c(S(=O)(=O)NCCO)c2)s1 [PIK-93] | 0.867 | 0.894 | 1.04 | 0.99 | 0.912 | 0.927 | 0.89 | 0.628 | 0.507
CC[C@]12C=CCN3CC[C@@]4(c5cc([C@@]6(C(=O)OC)C[C@@H]7C[C@@H](C(C)(F)F)CN(Cc8c6[nH]c6ccccc86)C7)c(OC)cc5N(C)[C@H]4[C@@](O)(C(=O)OC)[C@@H]1OC(C)=O)[C@@H]32 [Vinflunine Tartrate] | 0.942 | 0.974 | 0.988 | 0.837 | 0.438 | 0.0619 | 0.0561 | 0.0318 | 0.0295
Cn1cc(-c2ccc3nnc(C(F)(F)c4ccc5ncccc5c4)n3n2)cn1 | 0.705 | 0.555 | 0.636 | 0.611 | 0.603 | 0.652 | 0.673 | 0.698 | 0.514
COc1ccc(-c2oc3c(CC=C(C)C)c(O[C@@H]4O[C@H](CO)[C@@H](O)[C@H](O)[C@H]4O)cc(O)c3c(=O)c2O[C@@H]2O[C@@H](C)[C@H](O)[C@@H](O)[C@H]2O)cc1 [Icariin] | 0.591 | 0.799 | 0.636 | 0.598 | 0.636 | 0.557 | 0.622 | 0.567 | 0.672
O=C(Nc1c[nH]nc1-c1nc2ccc(CN3CCOCC3)cc2[nH]1)NC1CC1 [AT9283] | 0.876 | 0.868 | 0.795 | 0.818 | 0.739 | 0.208 | 0.0283 | 0.00844 | 0.0121
CC(C)(C)c1[nH]cnc1/C=c1\[nH]c(=O)/c(=C/c2ccccc2)[nH]c1=O [NPI-2358] | 0.809 | 0.786 | 0.793 | 0.82 | 0.279 | 0.0319 | 0.0147 | 0.0166 | 0.0259

Part of the list above, limited to relative viability (8 nM), relative viability (40 nM) and relative viability (0.0128 nM).
SMILES	relative viability (8 nM)	relative viability (40 nM)	relative viability (0.0128 nM)
C[C@]12CC[C@@H]3c4ccc(O)cc4C[C@@H](CCCCCCCCC[S+]([O-])CCCC(F)(F)C(F)(F)F)[C@H]3[C@@H]1CC[C@@H]2O (some centres undefined) [Fulvestrant]	0.807	0.847	1.01
COCCOC(=O)C1=C(C)NC(C)=C(C(=O)OC/C=C/c2ccccc2)C1c1cccc([N+](=O)[O-])c1 (centres undefined) [Cilnidipine]	0.645	0.731	0.616

Reference: the supplement of paper PMC8960247
